Assay results

By UniProt entry, the sequences of proteins in these tests, tags left out.
UniProt P08482, whole entry, target on record: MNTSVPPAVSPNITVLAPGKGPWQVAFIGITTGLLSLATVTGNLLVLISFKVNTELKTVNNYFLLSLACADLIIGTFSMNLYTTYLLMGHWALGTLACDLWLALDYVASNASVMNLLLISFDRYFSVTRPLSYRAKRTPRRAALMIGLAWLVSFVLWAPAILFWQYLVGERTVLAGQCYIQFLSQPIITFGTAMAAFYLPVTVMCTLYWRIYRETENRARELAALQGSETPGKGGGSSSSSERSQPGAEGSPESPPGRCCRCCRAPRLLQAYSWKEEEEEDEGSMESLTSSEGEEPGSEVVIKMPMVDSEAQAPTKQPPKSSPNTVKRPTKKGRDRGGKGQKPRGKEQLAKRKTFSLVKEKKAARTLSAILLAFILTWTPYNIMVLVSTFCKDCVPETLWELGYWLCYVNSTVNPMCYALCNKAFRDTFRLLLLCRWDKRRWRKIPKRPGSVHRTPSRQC

Data taken from PubChem BioAssay AID944, deposited by NCATS (2007).

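Rat M1 receptor blockade in CHO cells, judged by reduced carbachol-driven IP1 signal after half an hour, read with time-resolved FRET.
Each compound ran as a dilution series of about 15 steps, from roughly 0.00059 to 46 µM.
The value is the fitted AC50 for inhibition; a lower number means a more potent blocker.
Calls come from fitted curve class and score: actives score 40–100, inconclusives (weaker, partial, poorly fitted or single-point curves) score 1–39, inactives score 0.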

Values are in nM.
Every entry below has the call inconclusive.
These entries are mostly ones the record files as inconclusive; other results of the assay are not listed here.
A potency from a partial, single-point or poor curve is only a rough figure.
Activity scores are not listed here.

Result for Cc1nc(-c2ccc(-c3ccc(C(=O)N4CCc5cc6c(cc54)C4(CCN(C)CC4)CO6)cc3)c(C)c2)no1 was potency 14125 nM (inhibitor, partial curve, poor fit). For COc1ccccc1N1CCN(CCCCN2C(=O)c3ccccc3C2=O)CC1 the result was potency 7943 nM (inhibitor, full curve, poor fit). For COc1ccc(CCN(C)CCc2ccc(OC)c(OC)c2)cc1OC the result was potency 14125 nM (inhibitor, partial curve, poor fit). O=S(=O)(NCCNC/C=C\c1ccc(Br)cc1)c1cccc2cnccc12 gave potency 501.2 nM (inhibitor, full curve, poor fit). For CCOC(=O)c1cnc2c(cnn2CC)c1NN=C(C)C the result was potency 7943 nM (inhibitor, full curve, poor fit).

O=C(Cc1ccc(Cl)c(Cl)c1)N1CCCC[C@H]1CN1CCCC1 gave potency 14125 nM (inhibitor, partial curve, poor fit). For N[C@H](CCC(=O)N[C@H](CSN=O)C(=O)NCC(=O)O)C(=O)O the result was potency 8912 nM (inhibitor, partial curve, poor fit). Oc1ccc2c3c1O[C@@H]1c4[nH]c5c(c4C[C@@]4(O)[C@@H](C2)N(CC2CC2)CC[C@]314)C[C@]1(O)[C@@H]2Cc3ccc(O)c4c3[C@@]1(CCN2CC1CC1)[C@H]5O4 gave potency 2239 nM (inhibitor, full curve, poor fit). Result for COc1cccc(OC)c1OCCNC[C@@H]1CSc2ccccc2O1 was potency 11220 nM (inhibitor, full curve, poor fit). For C[C@]12CC[C@H](O)C[C@@H]1CC[C@H]1[C@H]2CC[C@]2(C)[C@H](C(=O)CO)CC[C@@H]12 the result was potency 19952 nM (inhibitor, partial curve, poor fit).

With C[C@@H]1C(=O)N(C)C(=O)c2nc[nH]c21 the assay gave potency 8912 nM (inhibitor, partial curve, poor fit). With N[C@H](CCCP(=O)(O)O)C(=O)O the assay gave potency 22387 nM (inhibitor, partial curve, poor fit). With CCCCCCCCCCCCCCCCCC(=O)NC[C@@H](COP(=O)([O-])OCC[N+](C)(C)C)OCC the assay gave potency 28183 nM (inhibitor, partial curve, poor fit). c1ccc(CN2CCC3(CCCc4ccccc43)CC2)cc1 read potency 10000 nM (inhibitor, partial curve, poor fit). With O=c1c(O)c(-c2ccc(O)c(O)c2)oc2cc(O)cc(O)c12 the assay gave potency 19952 nM (inhibitor, partial curve, poor fit).

With COc1cc2ncnc(Nc3cccc(Cl)c3)c2cc1OC the assay gave potency 17782 nM (inhibitor, partial curve, poor fit). CC1(C)NC(=O)N(c2ccc([N+](=O)[O-])c(C(F)(F)F)c2)C1=O read potency 12589 nM (inhibitor, partial curve, poor fit). For CCSC(N)=Nc1ccc(C(F)(F)F)cc1 the result was potency 25118 nM (inhibitor, partial curve, poor fit). For CC(=O)N[C@@H](CS)C(=O)O the result was potency 12589 nM (inhibitor, single point). With COc1ccc2c(c1)/C(=C/c1cnc[nH]1)C(=O)N2 the assay gave potency 3162 nM (inhibitor, full curve, poor fit).

Result for CCCCN1CCC(n2c(=O)[nH]c3ccccc32)CC1 was potency 11220 nM (inhibitor, partial curve, poor fit). Result for COc1ccccc1N1CCN(CCN2C(=O)CC3(CCCC3)CC2=O)CC1 was potency 14125 nM (inhibitor, partial curve, poor fit). Brc1ccc([C@H]2CN3CCSC3=N2)cc1 gave potency 15848 nM (inhibitor, partial curve, poor fit). N[C@H](Cc1ccc(Cl)cc1)C(=O)O read potency 11220 nM (inhibitor, partial curve, poor fit). With COCC(=O)O[C@]1(CCN(C)CCCc2nc3ccccc3[nH]2)CCc2cc(F)ccc2[C@@H]1C(C)C the assay gave potency 35481 nM (inhibitor, partial curve, poor fit).

For COc1cc2c(cc1OC)-c1cc(=Nc3c(C)cc(C)cc3C)n(C)c(=O)n1CC2 the result was potency 31622 nM (inhibitor, partial curve, poor fit).

Repeated from the top, 2 entries:

- Cc1nc(-c2ccc(-c3ccc(C(=O)N4CCc5cc6c(cc54)C4(CCN(C)CC4)CO6)cc3)c(C)c2)no1 : potency 14125 nM (inhibitor, partial curve, poor fit)
- COc1ccccc1N1CCN(CCCCN2C(=O)c3ccccc3C2=O)CC1 : potency 7943 nM (inhibitor, full curve, poor fit)